These results are taken from PMC7710127.

Sequences of proteins named here, by UniProt entry; tags and fusion partners are left off. A change or cut given only in a name is not applied to a line headed by its entry. Residues count along the entry.
UniProt P15941: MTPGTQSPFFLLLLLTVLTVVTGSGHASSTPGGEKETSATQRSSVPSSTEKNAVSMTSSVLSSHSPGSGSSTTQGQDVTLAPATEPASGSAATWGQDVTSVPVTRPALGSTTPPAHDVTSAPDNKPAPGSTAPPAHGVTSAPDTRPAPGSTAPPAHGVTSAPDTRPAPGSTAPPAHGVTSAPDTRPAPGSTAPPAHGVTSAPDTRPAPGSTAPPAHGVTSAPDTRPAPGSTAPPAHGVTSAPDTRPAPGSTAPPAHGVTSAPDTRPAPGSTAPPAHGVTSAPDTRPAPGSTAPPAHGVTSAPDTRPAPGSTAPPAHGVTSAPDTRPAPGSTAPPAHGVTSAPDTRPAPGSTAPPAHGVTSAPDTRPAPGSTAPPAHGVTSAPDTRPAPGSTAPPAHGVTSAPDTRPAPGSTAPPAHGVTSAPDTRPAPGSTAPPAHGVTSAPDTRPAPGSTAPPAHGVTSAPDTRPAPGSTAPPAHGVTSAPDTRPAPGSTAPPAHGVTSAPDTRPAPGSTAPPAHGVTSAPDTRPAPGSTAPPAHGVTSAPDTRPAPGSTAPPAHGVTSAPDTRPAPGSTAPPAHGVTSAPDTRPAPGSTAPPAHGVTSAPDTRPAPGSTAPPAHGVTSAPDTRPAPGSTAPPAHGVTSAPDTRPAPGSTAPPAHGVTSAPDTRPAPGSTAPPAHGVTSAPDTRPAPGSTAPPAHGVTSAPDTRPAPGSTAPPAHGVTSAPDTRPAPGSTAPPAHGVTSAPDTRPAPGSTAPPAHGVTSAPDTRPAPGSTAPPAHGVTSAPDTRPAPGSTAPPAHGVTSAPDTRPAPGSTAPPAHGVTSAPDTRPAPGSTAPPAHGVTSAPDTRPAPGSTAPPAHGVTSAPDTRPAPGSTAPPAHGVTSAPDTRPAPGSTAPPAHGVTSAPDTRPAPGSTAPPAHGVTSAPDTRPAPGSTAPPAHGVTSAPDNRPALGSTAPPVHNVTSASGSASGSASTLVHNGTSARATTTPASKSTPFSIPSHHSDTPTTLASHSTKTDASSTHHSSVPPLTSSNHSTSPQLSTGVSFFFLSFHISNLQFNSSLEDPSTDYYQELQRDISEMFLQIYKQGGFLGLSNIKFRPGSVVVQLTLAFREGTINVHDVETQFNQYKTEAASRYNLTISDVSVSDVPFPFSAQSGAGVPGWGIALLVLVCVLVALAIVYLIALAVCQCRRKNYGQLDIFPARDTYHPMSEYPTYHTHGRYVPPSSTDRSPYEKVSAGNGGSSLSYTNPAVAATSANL
UniProt P08962, 2-238: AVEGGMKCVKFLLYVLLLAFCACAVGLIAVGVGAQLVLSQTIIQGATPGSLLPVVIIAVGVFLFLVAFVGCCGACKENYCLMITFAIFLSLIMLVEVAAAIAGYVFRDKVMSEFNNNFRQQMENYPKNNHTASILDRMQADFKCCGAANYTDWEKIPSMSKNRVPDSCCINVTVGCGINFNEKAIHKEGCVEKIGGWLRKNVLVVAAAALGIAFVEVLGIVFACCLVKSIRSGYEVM
UniProt P16422, 24-314: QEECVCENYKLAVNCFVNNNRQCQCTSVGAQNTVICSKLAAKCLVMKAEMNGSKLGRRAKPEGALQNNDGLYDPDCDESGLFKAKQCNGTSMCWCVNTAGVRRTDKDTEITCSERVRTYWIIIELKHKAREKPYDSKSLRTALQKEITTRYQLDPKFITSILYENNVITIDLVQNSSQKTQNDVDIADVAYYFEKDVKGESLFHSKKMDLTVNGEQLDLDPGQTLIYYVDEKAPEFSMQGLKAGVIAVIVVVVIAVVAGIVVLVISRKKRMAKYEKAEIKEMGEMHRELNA

What all share (experiment): SPR
Holding throughout (settings): intact EV as analyte (1.25-20 nM), 1:1 model; SPR (Biacore T200, SA chip): HBS-EP+ 10 mM HEPES, 150 mM NaCl, 3 mM EDTA, 0.05% P20; 30 ul/min; pH and temperature not stated; native protein; single-stranded DNA

In series [1] the target is MUC1 on intact extracellular vesicles (UniProt P15941).
In series [2] the target is CD63 on intact extracellular vesicles (UniProt P08962).
Series [3] deals with EpCAM on intact extracellular vesicles (UniProt P16422).

pKd: −log10 of the molar value. Construct, isoform or probe ends are uncertain for at least one entry.

As a reminder, the pKd is the negative decadic logarithm of the Kd, by convention in mol/L. Low readings indicate a high Kd, high ones a low Kd. For the sequence GCAGTTGATCCTTTGGATACCCTGG [aptamerMUC1], the pKd in series [1] is 8.41.
Regarding “CACCCCACCTCGCTCCCGTGACACTAATGCTA [aptamerCD63]”, the pKd in series [2] was 8.75.
Take “CACTACAGAGGTTGCGTCTGTCCCACGTTGTCATGGGGGGTTGGCCTG [aptamerEpCAM]”: in series [3], the pKd was 9.09.
